No constants are given. Whether binding was seen depends on the method and setting. Binding can be weak; no strength is given.

By UniProt entry, the sequences of proteins in these tests, tags left out. Where a name states a change or a piece, a line headed by the entry shows the natural chain unless it says otherwise.
UniProt P08514: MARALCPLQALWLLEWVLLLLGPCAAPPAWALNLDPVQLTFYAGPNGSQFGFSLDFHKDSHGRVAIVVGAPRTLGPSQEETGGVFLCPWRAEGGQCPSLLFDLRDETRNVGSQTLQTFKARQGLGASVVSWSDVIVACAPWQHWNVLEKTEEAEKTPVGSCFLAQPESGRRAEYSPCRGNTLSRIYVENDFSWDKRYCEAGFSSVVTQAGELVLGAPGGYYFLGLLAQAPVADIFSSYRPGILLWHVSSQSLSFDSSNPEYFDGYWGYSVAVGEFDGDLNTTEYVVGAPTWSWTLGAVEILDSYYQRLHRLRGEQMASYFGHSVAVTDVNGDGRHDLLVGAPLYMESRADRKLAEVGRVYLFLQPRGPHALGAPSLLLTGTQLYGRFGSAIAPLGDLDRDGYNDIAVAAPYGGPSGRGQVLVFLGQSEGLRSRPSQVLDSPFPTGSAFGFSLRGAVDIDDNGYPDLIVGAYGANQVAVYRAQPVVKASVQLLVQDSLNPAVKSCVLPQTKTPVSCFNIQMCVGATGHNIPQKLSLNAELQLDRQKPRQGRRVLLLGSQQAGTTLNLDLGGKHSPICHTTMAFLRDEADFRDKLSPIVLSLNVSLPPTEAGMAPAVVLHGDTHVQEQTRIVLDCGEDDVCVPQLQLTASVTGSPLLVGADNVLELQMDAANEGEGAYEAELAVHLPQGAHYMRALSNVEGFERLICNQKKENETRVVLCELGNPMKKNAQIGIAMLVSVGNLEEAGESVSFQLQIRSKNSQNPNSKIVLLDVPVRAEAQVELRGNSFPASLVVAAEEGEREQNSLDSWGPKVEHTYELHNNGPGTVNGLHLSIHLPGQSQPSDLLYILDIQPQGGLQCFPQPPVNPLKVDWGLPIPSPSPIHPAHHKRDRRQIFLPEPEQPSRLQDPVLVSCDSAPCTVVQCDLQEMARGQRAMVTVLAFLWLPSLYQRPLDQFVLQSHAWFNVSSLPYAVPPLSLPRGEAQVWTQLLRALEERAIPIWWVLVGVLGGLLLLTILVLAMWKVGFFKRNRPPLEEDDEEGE

This passage reports binding results from US20170044236A1.

Assay [1] addresses preactivated cellular αIIbβ3 (αIIbβ3^N/S) (UniProt P08514). Kind of assay: flow cytometry, fluorescein-tagged ligand on cells. A general note: Flow cytometry measures light scatter and fluorescence of single cells or particles in a stream.
For assay [2], the target named is human αVβ3 ectodomain (human). Kind of assay: X-ray crystal structure, peptide soaked into αVβ3 ectodomain crystals.

B1: hFN10-G (designed binder)
chain: SDVPRDLEVVAATPTSLLISWDAPAVTVRYYRITYGETGGNSPVQEFTVPGSKSTATISGLKPGVDYTITVYAVTPGRGDWNEGSKPISINY
As to B1, the binding entry in assay [1] is “binds”.

B2: chemically synthesized knottin 2.5F (peptide)
peptide: GCPRPRGDNPPLTCSQDSDCLAGCVCGPNGFCG
For B2, the binding entry in assay [2] is given as “binds”.
